From doi:10.1101/2023.10.26.564194
No constants are given. Whether binding was seen depends on the method and setting. For some of these results: In cells and extracts the contact can be indirect. Some results given as binding are weak or reduced against the parent protein; the word gives no strength. For some of these results: Tags and fused reporters may be left off the sequences shown.

Chains of the proteins cited; added tags and fusions are not shown.
UniProt P04792: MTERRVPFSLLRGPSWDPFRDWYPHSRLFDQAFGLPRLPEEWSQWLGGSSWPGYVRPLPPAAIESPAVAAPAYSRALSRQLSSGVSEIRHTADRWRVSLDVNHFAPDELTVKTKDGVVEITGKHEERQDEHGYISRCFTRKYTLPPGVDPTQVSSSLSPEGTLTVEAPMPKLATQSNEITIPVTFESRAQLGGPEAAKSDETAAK
UniProt O60331: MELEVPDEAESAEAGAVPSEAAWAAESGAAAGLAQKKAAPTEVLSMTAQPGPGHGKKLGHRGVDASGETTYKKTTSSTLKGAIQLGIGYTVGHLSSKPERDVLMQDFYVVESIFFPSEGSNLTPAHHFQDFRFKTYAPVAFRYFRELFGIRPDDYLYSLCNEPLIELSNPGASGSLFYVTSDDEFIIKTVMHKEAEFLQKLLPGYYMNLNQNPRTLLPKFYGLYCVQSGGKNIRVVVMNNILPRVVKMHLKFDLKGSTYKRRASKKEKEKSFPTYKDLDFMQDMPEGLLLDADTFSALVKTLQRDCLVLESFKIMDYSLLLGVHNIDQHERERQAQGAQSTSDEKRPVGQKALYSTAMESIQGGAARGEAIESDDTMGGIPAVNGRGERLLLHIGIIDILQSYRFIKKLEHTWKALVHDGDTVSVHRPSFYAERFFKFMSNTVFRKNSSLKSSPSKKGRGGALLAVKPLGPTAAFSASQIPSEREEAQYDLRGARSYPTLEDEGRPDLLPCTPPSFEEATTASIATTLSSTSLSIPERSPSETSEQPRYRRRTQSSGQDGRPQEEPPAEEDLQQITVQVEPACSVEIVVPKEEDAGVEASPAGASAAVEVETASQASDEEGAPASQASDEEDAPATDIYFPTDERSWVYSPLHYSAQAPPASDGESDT

Assays:
[1] = target: HSP27, endogenous (human (endogenous in MDA-MB-231, MCF7)) (UniProt P04792); assay: co-IP
[2] = target: type I phosphatidylinositol phosphate kinase γ (PIPKIγ), endogenous (human (endogenous in MDA-MB-231, HCT116)) (UniProt O60331); assay: co-IP
[3] = target: type I phosphatidylinositol phosphate kinase γ (PIPKIγ), endogenous (human (endogenous in MDA-MB-231, HCT116)) (UniProt O60331); assay: proximity ligation
[4] = target: T1, nuclear factor erythroid 2-related factor 2 (NRF2), endogenous (human (endogenous in MDA-MB-231, HCT116, MCF7)) (UniProt Q16236); assay: co-IP
T1 sequence: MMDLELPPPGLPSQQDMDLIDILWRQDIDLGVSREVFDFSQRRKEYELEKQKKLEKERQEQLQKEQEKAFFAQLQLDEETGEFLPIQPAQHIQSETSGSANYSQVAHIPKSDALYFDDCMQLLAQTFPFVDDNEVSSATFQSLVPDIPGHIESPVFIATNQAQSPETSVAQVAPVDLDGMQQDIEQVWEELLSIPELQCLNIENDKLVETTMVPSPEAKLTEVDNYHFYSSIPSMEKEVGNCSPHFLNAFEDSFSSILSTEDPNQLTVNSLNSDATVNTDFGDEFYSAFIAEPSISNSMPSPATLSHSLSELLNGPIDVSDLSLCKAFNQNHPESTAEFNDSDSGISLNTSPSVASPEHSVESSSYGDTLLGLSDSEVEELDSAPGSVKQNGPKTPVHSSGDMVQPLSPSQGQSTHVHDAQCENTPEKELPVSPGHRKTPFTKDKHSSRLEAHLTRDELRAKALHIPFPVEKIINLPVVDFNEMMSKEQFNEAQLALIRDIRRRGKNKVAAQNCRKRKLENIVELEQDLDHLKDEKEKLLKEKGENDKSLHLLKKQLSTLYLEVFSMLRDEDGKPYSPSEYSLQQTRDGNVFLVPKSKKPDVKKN

[5] = target: T1, nuclear factor erythroid 2-related factor 2 (NRF2), endogenous (human (endogenous in MDA-MB-231, HCT116, MCF7)); assay: proximity ligation
[6] = target: T2, recombinant αB-crystallin (UniProt P02511); assay: pull-down
T2 sequence: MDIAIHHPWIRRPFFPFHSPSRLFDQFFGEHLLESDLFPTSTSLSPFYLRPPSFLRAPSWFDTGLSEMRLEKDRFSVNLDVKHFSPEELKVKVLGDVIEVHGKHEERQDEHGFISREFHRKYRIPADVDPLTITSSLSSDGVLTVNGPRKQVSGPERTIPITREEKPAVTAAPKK

recombinant HSP27 = recombinant HSP27 (UniProt P04792); assay: pull-down

B1: nuclear factor erythroid 2-related factor 2 (NRF2), endogenous (protein, UniProt Q16236 1-605)
chain: T1 sequence
- binding [1]: binds
- binding [2]: binds
- binding [3]: binds

B2: αB-crystallin, endogenous (protein, UniProt P02511 1-175)
chain: T2 sequence
- binding [4]: binds
- binding [5]: binds

B3: recombinant His-Tag NRF2 truncation mutant Δ2-86 amino acids (Neh2 domain deleted) (domain or fragment, UniProt Q16236)
chain: MQPAQHIQSETSGSANYSQVAHIPKSDALYFDDCMQLLAQTFPFVDDNEVSSATFQSLVPDIPGHIESPVFIATNQAQSPETSVAQVAPVDLDGMQQDIEQVWEELLSIPELQCLNIENDKLVETTMVPSPEAKLTEVDNYHFYSSIPSMEKEVGNCSPHFLNAFEDSFSSILSTEDPNQLTVNSLNSDATVNTDFGDEFYSAFIAEPSISNSMPSPATLSHSLSELLNGPIDVSDLSLCKAFNQNHPESTAEFNDSDSGISLNTSPSVASPEHSVESSSYGDTLLGLSDSEVEELDSAPGSVKQNGPKTPVHSSGDMVQPLSPSQGQSTHVHDAQCENTPEKELPVSPGHRKTPFTKDKHSSRLEAHLTRDELRAKALHIPFPVEKIINLPVVDFNEMMSKEQFNEAQLALIRDIRRRGKNKVAAQNCRKRKLENIVELEQDLDHLKDEKEKLLKEKGENDKSLHLLKKQLSTLYLEVFSMLRDEDGKPYSPSEYSLQQTRDGNVFLVPKSKKPDVKKN
- binding [6]: no binding
- binding (recombinant HSP27): no binding
